From paper PMC1414084 come the findings set out here.

Common to all, as to assay: two-hybrid; mammalian two-hybrid; bait fused to the Gal4 DNA-binding domain (BIND), prey to the VP16 transcriptional activation domain (ACT); luciferase reporter; cultured mammalian cells, 37°C; positive from 3 times the background activity (level 1), the selected set is level 2 (>=5 to <10 times) and level 3 (>=10 times)
A general note: Reporter assays use an easily measured gene product as a stand-in for the process of interest.

Assay [1] concerns the target PHS053, archaea-specific DNA-binding protein AlbA (Pyrococcus horikoshii OT3) (UniProt O74101).
The target in assay [2] is PHS042, small nucleoprotein (Pyrococcus horikoshii OT3) (UniProt O74016).
Assay [3] deals with PH1904, hypothetical protein (Pyrococcus horikoshii OT3) (UniProt O59567).
In assay [4] the target is PH0119, DNA repair protein (RadA/Rad51) (Pyrococcus horikoshii OT3) (UniProt O57859).
Assay [5] has as its target PH1408, putative uridylate kinase (Pyrococcus horikoshii OT3) (UniProt O50116).
Assay [6] addresses PH1257, hypothetical protein (Pyrococcus horikoshii OT3) (UniProt O58996).
In assay [7] the target is PH1153, putative acetylornithine deacetylase (Pyrococcus horikoshii OT3) (UniProt O58880).
For assay [8], the target named is PH0986, lactam utilization protein (Pyrococcus horikoshii OT3) (UniProt O58714).
Assay [9] deals with PH1821, Frv operon protein, endoglucanase (Pyrococcus horikoshii OT3) (UniProt O59485).
Assay [10] concerns the target PH1692, transcriptional regulator (AsnC-like protein) (Pyrococcus horikoshii OT3) (UniProt O59309).
Assay [11] deals with PH0413, glucose-1-phosphate thymidylyltransferase (Pyrococcus horikoshii OT3) (UniProt O58150).
In assay [12] the target is PH1474, hypothetical protein (Pyrococcus horikoshii OT3) (UniProt O59143).
Assay [13] addresses PHS023, regulatory protein AsnC (Pyrococcus horikoshii OT3) (UniProt O73983).
Assay [14] deals with PH1918, hypothetical protein (Pyrococcus horikoshii OT3) (UniProt O59581).

These are yes or no findings as the source states them, for the method shown. Some results given as binding are weak or reduced against the parent protein; the word gives no strength. For some assays here: Tags and fused reporters may be left off the sequences shown.

B1: PHS053, archaea-specific DNA-binding protein AlbA (protein, UniProt O74101 1-93)
chain: MTEEHVVYIGKKPVMNYVLAVITQFHEGAKEVSIKARGRAISRAVDVAEIVRNRFLKDDVDVKEIKIGTEELPTADGRTTNTSTIEIVLARKT
For the molecule B1, the binding entry in [1] was “binds”.

B2: PHS042, small nucleoprotein (protein, UniProt O74016 1-75)
chain: MAERPLDVIHRSLDKDVLVILKKGFEFRGRLIGYDIHLNVVLADAEMVQDGEVVKKYGKIVIRGDNVLAISPTEE
In the case of B2, the binding result in [2] is “binds”.

B3: PH1904, hypothetical protein (protein, UniProt O59567 1-106)
chain: MSEMSVIIEFSIVPMGEVSISKYVAEIIKLVRDRGVKYQLTPMGTILEVNSIEEGLSIIRDAHELMFKLGSKRVLTTIRIDERRDKARTMEDKVKSVMEKVESVRE
Turning to B3, the binding entry in assay [3] is recorded as “binds”.

B4: PH0119, DNA repair protein (RadA/Rad51) (protein, UniProt O57859 1-228)
chain: MKGSKSEVQGMVLTTGVKGLDELLGGGVARRVILQVYGPFATGKTTFAMQVGLLNEGKVAYVDTEGGFSPERLAQMARSRGLDPEKALSKFIIFEPMDLNEQRRVISKLKTIVDEKFSLVVVDSLTAHYRAEGSKNYGELAKQLQVLQWLARRKNVAVIVINQVYHDSNSNSLRPIAEHTLGYRTKDILRFEKLRVGVRLAVLERHRFRPEGGIVYFKITDKGLEDSK
With B4, in assay [4], the binding entry is recorded as “binds”.

B5: PH1408, putative uridylate kinase (protein, UniProt O50116 1-225)
chain: MRIVFDIGGSVLVPEKPDVDFITKLGYELTKISEDHEIAIVVGGGKVAREYIEVASKFNTNETFKDYLGIQITRANAMLLIAALKERAYPQVVSDFWEAWKAIQLKKIPVMGGTHPGHTTDAVSALLAEFLSADLLVVITNVDGVYTEDPKKNPNAKKIPKMKAKDLVDIVSREAGKAGVSTVIDPLAAKIIMRSGIKTYVIGKEDALKLFDVIKGNHNGTIIEP
For B5, in assay [5], the binding result was “binds”.

B6: PH1257, hypothetical protein (protein, UniProt O58996 1-227)
chain: MVGLADVAVLYSGGKDSNYALYWALKSGLRVRYLVSMVSENEESYMYHTPNVELTSLQARALGIPIIKGFTKGEKEKEVEDLKNVLEGLKVDGIVAGALASRYQKERIENVARELGLKVYTPAWEKDPYQYMLEIIKLGFKVVFVAVSAYGLNESWLGRELNYKNLEELKKLSEKYGIHIAGEGGEFETFVLDMPFFKAKIVIDDAEKFWDGLSGKFIIKRAHLEWK
As for B6, the binding entry in assay [6] is “binds”.

B7: PH1153, putative acetylornithine deacetylase (protein, UniProt O58880 1-354)
chain: MRKMKTERAKEILVQLLKIPSPSGREDRVALYIMEFLHKLNYDVHIESDGEIIDLVVNPGAELFFEVHMDTIDPRAEPFVRGNIVYGTGASDIKGGIASILLMLEQLRKEGKDLNVGIVFVSDEEKGGRGSALFMERYRPKMAVVLEPTDLEVHIAHAGNIEAYFEVDGKEAHGACPESGINAIEQTFEMLQKLKDLEPFKAKGKYFDPHIGIQELICENPYYLIPALCKGRLEARLLPDQEVEDILDLIDPILDEYTVKYEYTEIWDGYELSEDEEIVQIAKSAMDMVGLDEFGAMRSWTDAINFTYNGTKTIVFGPGNLDISHTKQERIDVRDVVKASEFLLAVNEIFGNKS
For the molecule B7, the binding entry in [7] is reported as “binds”.

B8: PH0986, lactam utilization protein (protein, UniProt O58714 1-255)
chain: MRVDLNSDLGESFGRYKLGLDEEVMKYITSANVACGWHAGDPLVMRKTVRLAKENDVQVGAHPGYPDLMGFGRRYMKLTPEEARNYILYQVGALYAFAKAEGLELQHVKPHGALYNAMVKEEDLARAVIEGILDFDKDLILVTLSNSRVADIAEEMGLKVAHEVFADRAYNPDGTLVPRGRPGAVIEDKEEIAERVISMVKDGGIRAINGEWVDLKVDTICVHGDNPKAVEITSYIRKVLEEEGVKIVPMKEFIR
Turning to B8, in [8], the binding entry is “binds”.

B9: PH1821, Frv operon protein, endoglucanase (protein, UniProt O59485 1-354)
chain: MDLKGGESMVDWKLMQEIIEAPGVSGYEHLGIRDIVVDVLKEVADEVKVDKLGNVIAHFKGSSPRIMVAAHMDKIGVMVNHIDKDGYLHIVPIGGVLPETLVAQRIRFFTEKGERYGVVGVLPPHLRRGQEDKGSKIDWDQIVVDVGASSKEEAEEMGFRVGTVGEFAPNFTRLNEHRFATPYLDDRICLYAMIEAARQLGDHEADIYIVGSVQEEVGLRGARVASYAINPEVGIAMDVTFAKQPHDKGKIVPELGKGPVMDVGPNINPKLRAFADEVAKKYEIPLQVEPSPRPTGTDANVMQINREGVATAVLSIPIRYMHSQVELADARDVDNTIKLAKALLEELKPMDFTP
As for B9, in assay [9], the binding entry is reported as “binds”.

B10: PH1692, transcriptional regulator (AsnC-like protein) (protein, UniProt O59309 1-148)
chain: MELDALDRKILEILLKDSRTSYREIAKDLNVAVGTIYNRIKKLEDSGVIQAFTVKLNYESIGYDLTAIIGIKAQGKKIREIERIIAKDKRVTCVYDVTGEYDIIVIAKFRNREDMNRFVKGVLSIDGVEKTNTHVVLEIVKEDFRLEP
Turning to B10, the binding result in assay [10] is on record as “binds”.

B11: PH0413, glucose-1-phosphate thymidylyltransferase (protein, UniProt O58150 1-356)
chain: MVDTMKALILSGGYGTRLRPLTYSQQKQLIPVANKPVLFYAIEDVIEAGIHEIGIVVGPNADLVKKTVMSVDWDANIEFIYQGEPKGLAHAILVARDYLGDEDFVMYLGDNILREGIVRHKEHFEKSDYDASILLCEVPNPQQFGVAELSEDGKTIKRLVEKPKHPPSNLALVGIYFFRPIIHEAVRHIKPSWRNELEITDAIQWLIDNGYKVGWTKVTGWWKDTGKPEDLLEANRLVLDEIEKEVKVETRAKIIGRVKIEEGAQIDENSVIKGPAVIGKNAVIRNAYIGPYTSVGNNVVIEDTEVEDSIVMDDSIIVGAGRIVESIIGRGVKIIKGNSHPMGRRLIIGDNSQIVL
For B11, in assay [11], the binding result is “binds”.

B12: PH1474, hypothetical protein (protein, UniProt O59143 1-267)
chain: MKVGVSIYPHFIKEGKTLPSILANVKIKDYDFVQIFPHALGLIRNGTVIESALKEVEIVLKGVGIDYIIRMPVSLNLRDSIYYSRHFKVAKAILDVAIKLGAKIIVMQSGKTGRLDLEIDAIRSLADTANKFDIKIALENTFSVKDTLYVIDNVNRDNVGFALDVAHAFLSAQGDENKLLEDVKLGIEKTILLLVHDNFGKMFPQVEPEDALAYGVGDLHLLPGEGKIPFGKILKLFDDVPILLKVKDPKVFANLPPKSELIERLRR
Regarding B12, the binding result in [12] is “binds”.

B13: PHS023, regulatory protein AsnC (protein, UniProt O73983 1-75)
chain: MVTAFILMVTAAGKEREVMEKLLAMPEVKEAYVVYGEYDLIVKVETDTLKDLDQFITEKIRKMPEIQMTSTMIAI
Take B13: the binding result in assay [13] is “binds”.

B14: PH1918, hypothetical protein (protein, UniProt O59581 1-162)
chain: MVRIEVIDIEKPEGVEVIIGQGNFSIFTVDDLARALLTAVPGIKFGIAMNEAKPQLTRYTGNDPELEALAAKNAVKIGAGHVFVILMKNAYPINVLNTIKNHPAVAMIYGASENPFQVIVAETELGRAVIGVVDGKAANKIETDEQKKERRELVEKIGYKID
In the case of B14, the binding entry in assay [14] is on record as “binds”.
